Experimental data: patent US10874638B2, “Methods and compositions for modulating hormone levels” (priority 2014, dated 2020)
At least one structure is not confirmed: it was looked up by name or label, or the drawing left a doubt.

Test system: ovariectomized mature female rats
Experiment: Ovariectomized mature female rat model
Type: in vivo
Conditions: OVX rat, subcutaneous reference
Procedure: Ovariectomized mature female rats are used to characterize primarily bone activity of the compositions provided herein or the individual SERM or SARM compounds. A sham group is used as control. The model can be run in either maintenance mode where the animals are dosed one day after the ovariectomy or restoration mode where the animals are dosed seven to eight weeks after the surgery. The rats are scanned by dual energy x-ray absorptiometry and sorted into experimental groups based upon femoral bone mineral content (BMC). Three dosages of testing compositions/compounds are administered orally once a day for 4, 8, or 12 weeks and estradiol and testosterone are administered subcutaneously to the reference groups. Animals received subcutaneous injections of fluorochrome markers for bone histomorphometric analysis. Alizarian Red S was prepared as a 3% solution and given at a dose of 30 mg/kg at the time of the baseline scan. Calcein was administered 10 days and 3 days prior to necropsy.
Approximately 24 hours after the last dose, blood is collected and the gastrocnemius muscle, plantaris muscle, uterus, clitoral glands, clitoris and inguinal fat pads were isolated, blotted and weighed individually. The left femur and lumbar vertebra L5 are wrapped in saline-soaked gauze and stored at −20° C. for biochemical analysis. […]
BMC, bone mineral density (BMD) and bone length are measured by pDEXA on an entire femur. […] Serum osteocalcin, a marker for bone turnover, and alkaline phosphatase derived from the tibial periosteum are also measured. […] Peak load and peak displacement are measured directly from the load cell and the crosshead, respectively. Stiffness is calculated from the slope of the linear region of the load/displacement curve. Lumbar vertebra L5 is also measured in the mechanical testing for bone strength. […]
Body weight, gastrocnemius weight and plantaris weight changes are measured indicating anabolic activity of the testing compositions/compounds on skeletal muscle. […] Clitoral gland and clitoral weights are measured to assess the virilizing effect of drugs. […]

For `C[C@]12CC[C@@H]3c4ccc(O)cc4CC[C@H]3[C@@H]1CC[C@@H]2O` [Estradiol, estradiol], the “femur BMD” value (0.1 mg/kg/day) was “significantly increases”, the “biomechanical properties at the femur” value was “does not have a significant effect” and the “lumbar spine compressive strength and stiffness” value was “significantly increases”.
